Results as given in PMC9163188.
These are yes or no findings as the source states them, for the method shown. Binding seen in cells or lysates may run through a third protein. Some results given as binding are weak or reduced against the parent protein; the word gives no strength.

By UniProt entry, the sequences of proteins in these tests, tags left out.
UniProt P99999: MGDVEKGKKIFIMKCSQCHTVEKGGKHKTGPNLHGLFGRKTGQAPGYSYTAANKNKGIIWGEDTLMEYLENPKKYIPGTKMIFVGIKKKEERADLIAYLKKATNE

Biological target: cytochrome c (CYCS), endogenous (human (endogenous in HEK-293T; the cell line of the proximity ligation assay is not stated, all lines of the paper are human)) (UniProt P99999)
Assay: proximity ligation; Duolink kit; anti-USP53 rabbit polyclonal Ab with PLUS probe, anti-CYCS mouse monoclonal Ab with MINUS probe; endogenous proteins in fixed cells, MitoTracker and DAPI, confocal microscopy

binding: binds
B1: USP53, endogenous (enzyme, UniProt Q70EK8 1-1073)
chain: MAWVKFLRKPGGNLGKVYQPGSMLSLAPTKGLLNEPGQNSCFLNSAVQVLWQLDIFRRSLRVLTGHVCQGDACIFCALKTIFAQFQHSREKALPSDNIRHALAESFKDEQRFQLGLMDDAAECFENMLERIHFHIVPSRDADMCTSKSCITHQKFAMTLYEQCVCRSCGASSDPLPFTEFVRYISTTALCNEVERMLERHERFKPEMFAELLQAANTTDDYRKCPSNCGQKIKIRRVLMNCPEIVTIGLVWDSEHSDLTEAVVRNLATHLYLPGLFYRVTDENAKNSELNLVGMICYTSQHYCAFAFHTKSSKWVFFDDANVKEIGTRWKDVVSKCIRCHFQPLLLFYANPDGTAVSTEDALRQVISWSHYKSVAENMGCEKPVIHKSDNLKENGFGDQAKQRENQKFPTDNISSSNRSHSHTGVGKGPAKLSHIDQREKIKDISRECALKAIEQKNLLSSQRKDLEKGQRKDLGRHRDLVDEDLSHFQSGSPPAPNGFKQHGNPHLYHSQGKGSYKHDRVVPQSRASAQIISSSKSQILAPGEKITGKVKSDNGTGYDTDSSQDSRDRGNSCDSSSKSRNRGWKPMRETLNVDSIFSESEKRQHSPRHKPNISNKPKSSKDPSFSNWPKENPKQKGLMTIYEDEMKQEIGSRSSLESNGKGAEKNKGLVEGKVHGDNWQMQRTESGYESSDHISNGSTNLDSPVIDGNGTVMDISGVKETVCFSDQITTSNLNKERGDCTSLQSQHHLEGFRKELRNLEAGYKSHEFHPESHLQIKNHLIKRSHVHEDNGKLFPSSSLQIPKDHNAREHIHQSDEQKLEKPNECKFSEWLNIENSERTGLPFHVDNSASGKRVNSNEPSSLWSSHLRTVGLKPETAPLIQQQNIMDQCYFENSLSTECIIRSASRSDGCQMPKLFCQNLPPPLPPKKYAITSVPQSEKSESTPDVKLTEVFKATSHLPKHSLSTASEPSLEVSTHMNDERHKETFQVRECFGNTPNCPSSSSTNDFQANSGAIDAFCQPELDSISTCPNETVSLTTYFSVDSCMTDTYRLKYHQRPKLSFPESSGFCNNSLS
